PubChem BioAssay AID1259254 | NCATS | 2017
Aim: 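Gene knock-downs that lead to re-replication, shown by excess G2 DNA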 (primary screen). Cells: human HCT116 colorectal cancer cells. Reagent: single siRNA against human genes. Duration: 3 days. Measurement: 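Nuclei stained with Hoechst and imaged; cell-cycle phase assigned by DNA content; G2 share scaled per plate, non-targeting siRNA 0%, GMNN siRNA 100%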. Scale: G2 robust z-score and G2 cells, % of GMNN control: higher = more G2 cells, more excess DNA replication; raw share of cells in G2: higher = larger share of cells with G2 DNA content. Rule for the call: 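An siRNA counts as active if its G2 robust z-score lies at least 5 MADs above the screen median; here such calls match roughly 38% of GMNN control or more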.
The whole screen tested about 59,000 reagents; this is an unselected part. About 1,550 of all reagents (2.6%) count as active. 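G2 share is only a proxy for re-replication; each gene was hit by three separate siRNAs, and active genes were retested.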 The raw values are shown without normalisation. Entries without a mark were called inactive. The numbers tell different reagents against one gene apart. The record does not give: the amount of reagent.

no.	target	reagent	G2 robust z-score	G2 cells, % of GMNN control	raw share of cells in G2 (%)
1	CDK19	1	-0.0677	2.49	6.36
2	CDK19	2	-1.5	-7.56	2.44
3	CDK19	3	1.78	15.5	8.65
4	CAAP1	1	2.11	17.8	11.9
5	CAAP1	2	-0.684	-1.84	3.5
6	CAAP1	3	-0.153	1.89	2.89
7	ARFGEF1	1	-1.2	-5.45	2.87
8	ARFGEF1	2	-0.778	-2.5	2.9
9	ARFGEF1	3	1.32	12.2	7.86
10	ARL14EP	1	0.353	5.45	6.28
11	ARL14EP	2	-0.713	-2.05	2.72
12	ARL14EP	3	-0.56	-0.972	1.53
13	MON1B	1	-1.1	-4.8	3.1
14	MON1B	2	-0.749	-2.3	3.19
15	MON1B	3	-0.927	-3.55	1.84
16	OR4N3P	1	0.179	4.22	5.16
17	OR4N3P	2	0.158	4.08	4.68
18	OR4N3P	3	0.0253	3.15	3.71
19	FER1L6	1	0.0573	3.37	4.79
20	FER1L6	2	-0.198	1.57	3.75
21	FER1L6	3	-0.526	-0.733	2.56
22	USP49	1	1.36	12.5	9.92
23	USP49	2	0.896	9.27	8.19
24	USP49	3	0.498	6.47	6.32
25	KRT75	1	-0.0129	2.88	6.27
26	KRT75	2	1.62	14.4	9.86
27	KRT75	3	-0.731	-2.18	3.55
28	LINC03042	1	-0.785	-2.56	2.9
29	LINC03042	2	0.718	8.02	6.89
30	LINC03042	3	0.632	7.41	7.81
31	GTF2E1	1	-0.484	-0.438	3.29
32	GTF2E1	2	3.15	25.1	16.6
33	GTF2E1	3	0.292	5.02	4.93
34	TAS2R16	1	1.29	12	8.45
35	TAS2R16	2	1.39	12.8	9.38
36	TAS2R16	3	-0.548	-0.891	2.97
37	FNTB	1	-0.919	-3.5	3.97
38	FNTB	2	-0.899	-3.36	3.99
39	FNTB	3	0.1	3.67	4.97
40	CFAP52	1	-0.974	-3.88	2.53
41	CFAP52	2	-0.998	-4.06	1.66
42	CFAP52	3	-0.823	-2.82	2.08
43	ARHGAP10	1	0.0233	3.13	6.73
44	ARHGAP10	2	-0.265	1.1	5.19
45	ARHGAP10	3	0.311	5.15	6.06
46	CPLX1	1	3.55	27.9	15.9
47	CPLX1	2	-0.0151	2.86	5.32
48	CPLX1	3	-0.019	2.83	4.23
49	LOC646012	1	-1.02	-4.18	2.2
50	LOC646012	2	0.275	4.91	5.04
51	LOC646012	3	0.35	5.43	4.77
52	YY1AP1	1	1.1	10.7	6.56
53	YY1AP1	2	1.56	13.9	12.2
54	YY1AP1	3	-0.192	1.62	4.14
55	MYOM3	1	1.77	15.4	10.3
56	MYOM3	2	0.395	5.75	8.34
57	MYOM3	3	-0.701	-1.96	4.12

Continued; the last 7 above are carried over.
no.	target	reagent	G2 robust z-score	G2 cells, % of GMNN control	raw share of cells in G2 (%)
51	LOC646012	3	0.35	5.43	4.77
52	YY1AP1	1	1.1	10.7	6.56
53	YY1AP1	2	1.56	13.9	12.2
54	YY1AP1	3	-0.192	1.62	4.14
55	MYOM3	1	1.77	15.4	10.3
56	MYOM3	2	0.395	5.75	8.34
57	MYOM3	3	-0.701	-1.96	4.12
58	NPY4R	1	1.1	10.7	9.68
59	NPY4R	2	-0.662	-1.69	3.93
60	NPY4R	3	-0.931	-3.58	2.17
61	OR4X1	1	2.19	18.4	10.1
62	OR4X1	2	-0.741	-2.25	2.43
63	OR4X1	3	-0.811	-2.74	3.46
64	SCN2A	1	-0.212	1.48	5.83
65	SCN2A	2	0.261	4.8	6.41
66	SCN2A	3	-0.346	0.536	4.58
67	CNTNAP4	1	1.69	14.9	11.4
68	CNTNAP4	2	2.82	22.8	13.1
69	CNTNAP4	3	1.24	11.7	11.1
70	GIMAP1	1	-0.631	-1.47	3.08
71	GIMAP1	2	1.27	11.9	6.96
72	GIMAP1	3	-0.019	2.83	3.66
73	SLC30A3	1	0.0357	3.22	5.46
74	SLC30A3	2	0.739	8.16	7.16
75	SLC30A3	3	3.48	27.4	17.2
76	LINC00619	1	1.58	14.1	8.94
77	LINC00619	2	-0.904	-3.4	2.17
78	LINC00619	3	-0.177	1.72	5.51
79	FCHO1	1	-0.666	-1.72	2.53
80	FCHO1	2	-1.14	-5.06	3
81	FCHO1	3	0.867	9.07	7.88
82	NEURL2	1	-0.697	-1.93	3.99
83	NEURL2	2	-0.675	-1.78	3.95
84	NEURL2	3	-1.55	-7.96	2.16
85	HSD3B1	1	-0.186	1.66	5.65
86	HSD3B1	2	1.96	16.8	12.1
87	HSD3B1	3	2.58	21.1	11.9
